The list does not hold the whole screen: it is rich in T/C values a quarter to a half above the control, in often repeated tests (any T/C) and in doses without a T/C. Further doses and runs are listed elsewhere. T/C gives the treated animals as a percentage of the vehicle group. Some entries give survivors of the animals treated and no T/C: the source files T/C as zero there, which appears to mark a toxic dose or a test without result, not a measured value. Some survivor counts are full or nearly so, which does not show that the dose was tolerated: survival well below the control is almost never listed, so the zero probably covers shortened survival too. Survivors were counted at the toxicity check, usually on the fifth day, unless a day is given; later deaths do not show. Schedule codes are those of the source, taken here to give the interval after Q, in days (D) or hours (H), and the number of doses after X. Where survival is the endpoint, the PubChem record calls one and a half times the control and up active, and a quarter to a half above the control has no call in these data; cut-offs in other NCI protocols can differ. Some T/C values are followed by the survivors on the day toxicity was checked, most often the fifth; where none is given, no animal had died by that day. Some doses were run more than once; their values stand side by side, smallest first.
System: P388 leukemia ip, CD2F1 mice, survival T/C
Assay: NCI In Vivo Anticancer Drug Screen. Data for tumor model P388 Leukemia (intraperitoneal) in CD2F1 (CDF1) mice
Conditions: T/C endpoint: median survival time, higher T/C = longer survival
[1] = dose: 100.0 mg/kg/injection, schedule: Q01DX005 (ip), vehicle: saline
[2] = dose: 200.0 mg/kg/injection, schedule: Q01DX005 (ip), vehicle: saline
[3] = dose: 100.0 mg/kg/injection, schedule: Q01DX005 (ip), vehicle: saline with Tween-80
[4] = dose: 200.0 mg/kg/injection, schedule: Q01DX005 (ip), vehicle: saline with Tween-80

CN=C(NC)NCCSCc1ccc2ccccc2n1 was tested, and the survivor count [1] was 0 of 5 and the survivor count [2] was 0 of 5.
In the case of CC(N)C1CCC2C3CC=C4CC(N)CCC4(C)C3CCC12C (stereo not given), the survivor count (dose: 40.0 mg/kg/injection, schedule: Q01DX009 (ip), vehicle: saline with Tween-80) is reported as 3 of 6.
In the case of COc1cc2c(cc1OC)C(CCCCCCCC1NCCc3cc(OC)c(OC)cc31)NCC2 (stereo not given), the survivor count [1] is reported as 1 of 6 and the survivor count [2] is reported as 0 of 6.
For CN(C)CC(CN(C)C)C(=O)c1ccc(Oc2ccccc2)cc1, the survivor count (dose: 30.0 mg/kg/injection, schedule: Q01DX005 (ip), vehicle: saline) was 4 of 6, the survivor count (dose: 60.0 mg/kg/injection, schedule: Q01DX005 (ip), vehicle: saline) was 0 of 6 and the survivor count (dose: 120.0 mg/kg/injection, schedule: Q01DX005 (ip), vehicle: saline) was 0 of 6. The survivor count (dose: 240.0 mg/kg/injection, schedule: Q01DX005 (ip), vehicle: saline) was 0 of 6.
With Nc1nc(/C=C(/O)c2ccccc2)c2ncn(C3OC(CO)C(O)C3O)c2n1 (stereo not given) the survivor count (dose: 400.0 mg/kg/injection, schedule: Q01DX009 (ip), vehicle: saline with Tween-80) was 0 of 5.
O=[As]O was tested, and the T/C (dose: 4.0 mg/kg/injection, schedule: Q01DX010 (ip), vehicle: saline with Tween-80) was 127 % of control and the T/C (dose: 8.0 mg/kg/injection, schedule: Q01DX010 (ip), vehicle: saline with Tween-80) was 136 % of control.
With N#C/C(C(=N)c1ccccc1)=C1\SS/C(=C(\C#N)C(=N)c2ccccc2)S1 the survivor count (dose: 12.5 mg/kg/injection, schedule: Q01DX009 (ip), vehicle: saline with Tween-80) was 6 of 6.
In the case of CNCCCN1c2ccccc2CCc2ccccc21, the survivor count [3] is reported as 0 of 6 and the survivor count [4] is reported as 0 of 6.
With CC(C)(C)C1=CCN(C(C)(C)/C=N\O)CC1 the survivor count [3] was 4 of 6 and the survivor count [4] was 0 of 6.
In the case of COc1c2occc2c(N=Cc2ccccn2)c2ccc(=O)oc12, the survivor count (dose: 50.0 mg/kg/injection, schedule: Q01DX005 (ip), vehicle: Klucel (hydroxypropylcellulose) (HPC)) is reported as 6 of 6, the survivor count (dose: 100.0 mg/kg/injection, schedule: Q01DX005 (ip), vehicle: Klucel (hydroxypropylcellulose) (HPC)) is reported as 6 of 6 and the survivor count (dose: 200.0 mg/kg/injection, schedule: Q01DX005 (ip), vehicle: Klucel (hydroxypropylcellulose) (HPC)) is reported as 6 of 6.
In the case of NCCC(=O)NCCSSCCNC(=O)CCN, the survivor count (dose: 400.0 mg/kg/injection, schedule: Q04DX003 (ip), vehicle: saline) is reported as 3 of 6.
CCCCCCCCN1CSC(=S)N(c2ccc3[nH]c(=S)sc3c2)C1 was tested, and the survivor count (dose: 50.0 mg/kg/injection, schedule: Q01DX009 (ip), vehicle: Klucel (hydroxypropylcellulose) (HPC)) was 6 of 6, the survivor count (dose: 100.0 mg/kg/injection, schedule: Q01DX009 (ip), vehicle: Klucel (hydroxypropylcellulose) (HPC)) was 2 of 6 and the survivor count (dose: 200.0 mg/kg/injection, schedule: Q01DX009 (ip), vehicle: Klucel (hydroxypropylcellulose) (HPC)) was 0 of 6.
O=C1OC(C(O)CO)C(O)=C1OC[N+]1(CCCl)CCN(CCCl)CC1 (stereo not given) was tested, and the T/C (dose: 200.0 mg/kg/injection, schedule: Q01DX009 (ip), vehicle: saline) was 126 % of control.
For C=C(C)CN1C(=O)C(C)S/C1=N/N=C1/SCC(=O)N1C (stereo not given), the survivor count (dose: 250.0 mg/kg/injection, schedule: Q01DX009 (ip), vehicle: saline) was 6 of 6.
CCC1(O)CN2CCc3c([nH]c4ccccc34)C1C(/C=C(\C(=O)OC)c1cc3c(cc1OC)N(C)C1C(O)(C(=O)OC)C(OC(C)=O)C4(CC)C=CCN5CCC31C54)C2 (stereo not given) was tested, and the T/C (dose: 1.0 mg/kg/injection, schedule: Q01DX009 (ip), vehicle: distilled water + alcohol) was 142 % of control.
With COc1cccc2c1C(=O)c1c(O)c3c(c(O)c1C2=O)CC(O)CC3OC1CC(N)C(O)C(C)O1 (stereo not given) the T/C (dose: 1.56 mg/kg/injection, schedule: Q01DX009 (ip), vehicle: water) was 144 % of control, the survivor count (dose: 12.5 mg/kg/injection, schedule: Q01DX009 (ip), vehicle: water) was 3 of 3 and the survivor count (dose: 25.0 mg/kg/injection, schedule: Q01DX009 (ip), vehicle: water) was 2 of 3.
CC(=O)Nc1ccc(N=Nc2c(C)nn(C(=N)N)c2C)cc1 was tested, and the T/C (dose: 25.0 mg/kg/injection, schedule: Q01DX009 (ip), vehicle: saline) was 128 and 130 % of control and the T/C (dose: 50.0 mg/kg/injection, schedule: Q01DX009 (ip), vehicle: saline) was 140 and 146 % of control [5 of 6 alive].
O=c1[nH]nc(-c2ccc(Cl)cc2)c2cc(Cl)c(Cl)cc12 was tested, and the survivor count (dose: 25.0 mg/kg/injection, schedule: Q04DX002 (ip), vehicle: distilled water + Tween-80) was 6 of 6.
In the case of O=C(O)C(c1ccccc1)C1CCCCC1C1CCCCC1 (stereo not given), the survivor count [3] is reported as 5 of 5 and the survivor count [4] is reported as 5 of 5.
